# The other results are listed elsewhere or left out. Shown are side measurements of this screen, not its main read-out; they come without a call. Compounds called inactive in the main read-out are mostly missing here. Potencies come from curve fits of mixed quality, noted in brackets.
# Assay: qHTS Assay for Lipid Storage Modulators in Drosophila S3 Cells;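 on cell number change: cells counted by Cell Tracker Red CMTPX staining in the red channel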
# Settings: BODIPY lipid droplet fluorescence, 18-24 h; for cell number change: measured here: cell count max response, cells fed with added oleic acid
# How it was run: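 Drosophila S3 cells loaded with oleic acid (400 uM, as added) and compounds at several concentrations; lipid droplets imaged by 488-nm laser-scanning cytometry, 500–530 nm intensity and object ratio to cell channel. Percent activity normalized to 20 uM Triacsin C.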
# [1] = measured here: lipid fluorescence (Fed channel) AC50, cells fed with added oleic acid
# [2] = measured here: cell number channel AC50, cells fed with added oleic acid
Structure (SMILES),cell number change [%],AC50 [1],AC50 [2]
CCOC(=O)c1cnc2c(C(F)(F)F)cccc2c1NCCCN1CCOCC1,-2.21,"20.6 µM [falling, single point]",
COc1ccc(Oc2ccc(N/C=C/C(=O)C(C)(C)C)cc2)cc1,23.2,,"0.103 µM [rising, full curve, poor fit]"
O=C(CCCN1C(=O)C2CCCCN2C1=O)N1CCN(c2ccc([N+](=O)[O-])cc2)CC1 (stereo not drawn),,"0.58 µM [rising, single point]",
COc1ccc(CCN(Cc2cc3cc(C)cc(C)c3nc2Cl)C(=O)C2CC2)cc1,-19.9,"0.231 µM [falling, full curve, poor fit]",
O=C(NCCCN1CCCCC1)C1CCCN(c2ncnc3c2nc2n3CCCCC2)C1 (stereo not drawn),,"29.1 µM [falling, single point]",
CCOC(=O)c1sc(C)c(C(=O)NCC(C)(C)CN(C)C)c1N,13.1,"0.58 µM [rising, single point]",
CCCCNC(=O)NS(=O)(=O)c1ccc(NS(=O)(=O)c2ccccc2)cc1,-24.6,"1.03 µM [rising, full curve]","4.11 µM [falling, full curve, poor fit]"
Cc1cc(NC(=O)CSc2nnc(-c3cccnc3)n2C2CCCCC2C)no1 (stereo not drawn),,"0.58 µM [rising, single point]","0.58 µM [rising, single point]"
FC(F)(F)COc1ccc(-c2nnc(SCc3c(Cl)cccc3Cl)o2)cn1,-2,,"0.206 µM [rising, partial curve, poor fit]"
O=C(CCC(=O)N1CCCCC1)Nc1nnc(C2CCCCC2)s1,-17.7,"6.51 µM [falling, single point]",
CC(C)NC(=O)NC(=O)CSc1ncc(C(F)(F)F)cc1Cl,-31.8,,"9.2 µM [falling, partial curve]"
COc1ccc(CNC(=O)CN(C(=O)c2snc(C(N)=O)c2N)c2ccc(OC)c(OC)c2)cc1,34.6,,"32.6 µM [rising, single point]"
COc1ccccc1N1CCN(S(=O)(=O)c2ccccc2)CC1,,,"2.59 µM [rising, partial curve]"
CCCCC(=O)NC(Nc1cc(C)ccn1)(C(=O)OCC)C(F)(F)F (stereo not drawn),-31.6,"23.1 µM [falling, single point]","29.1 µM [falling, single point]"
CC(=O)NCc1c(Cl)cccc1-n1cccc1,42,,
N=c1n(CCN2CCCCC2)c2ccccc2n1CC(=O)c1cccc([N+](=O)[O-])c1,-25.7,"29.1 µM [falling, single point]",
COc1ccc(CC(=O)NC(C)c2nnc(SCc3nc4ccccc4c(=O)[nH]3)n2C)cc1 (stereo not drawn),1.2,,
Nc1c2c(nc3ccccc13)CCCC2=O,9.71,"5.8 µM [rising, single point]",
CCOC(=O)NCc1ccc(S(=O)(=O)Nc2c(C)cccc2C)cc1,42.8,"0.326 µM [rising, partial curve, poor fit]","0.651 µM [rising, full curve, poor fit]"

Structure (SMILES),cell number change [%],AC50 [1],AC50 [2]
O=C(CCCc1ccccc1)NCc1ccc(F)cc1,-1.57,"20.6 µM [rising, single point]",
COc1ccc(CNC(=O)Cn2cc(C(F)(F)F)ccc2=O)cc1OC,12.6,"29.1 µM [rising, single point]",
CN/C=C1\C(=O)C(C)(C)Oc2ccc3ccc(=O)oc3c21,,"1.3 µM [falling, full curve]","1.64 µM [falling, partial curve]"
O=C(NCN1C(=O)C2C3C=CC(C3)C2C1=O)Nc1cccnc1 (stereo not drawn),-63.4,"29.1 µM [falling, single point]","29.1 µM [falling, single point]"
CCOc1cc(N2CCOCC2)c(OCC)cc1NC(=O)c1c(-c2ccccc2)noc1C,-6.91,"29.1 µM [falling, single point]",
COc1ccc(S(=O)(=O)N2CCN(C(=O)c3cccnc3)CC2)cc1OC,17.3,"5.8 µM [falling, single point]",
CN(C)CCCNC(=O)C(=O)NCC(c1cccs1)S(=O)(=O)c1ccc(F)cc1 (stereo not drawn),-57.2,,"29.1 µM [falling, single point]"
CC(=O)C1=C(O)C(=O)N(Cc2ccccc2)C1c1ccccc1F (stereo not drawn),,"16.4 µM [falling, partial curve]",
O=C(NNc1cc(C(F)(F)F)ccc1Cl)c1ccc(=O)[nH]c1,-7.98,,
CCOC(=O)C1CCCN(C(=O)c2cccc(N3C(=O)c4ccccc4C3=O)c2)C1 (stereo not drawn),17.5,,"3.26 µM [falling, single point]"
COc1ccccc1NC(=O)C1=C(C)NC(SCC(=O)c2ccccc2)=C(C#N)C1c1ccco1 (stereo not drawn),,"3.26 µM [rising, partial curve]","4.11 µM [rising, partial curve]"
COc1cccc(N2CCN(C(=O)c3ccc(CS(=O)c4ccccc4Cl)o3)CC2)c1 (stereo not drawn),-18.6,"29.1 µM [falling, single point]",
O=C(c1ccc(S(=O)(=O)N2CCC(c3nc4ccccc4s3)CC2)cc1)N1CCOCC1,3.55,,
O=C(Nc1ccccc1)N1CC=C(c2ccccc2)CC1,-3.05,"18.4 µM [rising, single point]",
CN(Cc1ccccc1)C(=O)CN(c1ccc(F)cc1)S(=O)(=O)c1ccc2c(c1)OCCO2,2.1,"0.00461 µM [rising, full curve, poor fit]",
COc1ccc(Cl)cc1S(=O)(=O)N1CCN(C(=O)c2cc(OC)c(OC)c(OC)c2)CC1,-28.6,"32.6 µM [falling, single point]",
CCC(c1nnnn1Cc1ccco1)N(CCc1ccccc1)Cc1cc2cccc(C)c2[nH]c1=O (stereo not drawn),,"6.51 µM [rising, partial curve, poor fit]","0.058 µM [rising, full curve, poor fit]"
CC(C)CCOc1ccc(C(=O)N2CCN(c3ncccn3)CC2)cc1,-4.17,"29.1 µM [falling, single point]",
COC(=O)C1=C(N)Oc2cc(C)n(CC3CCCO3)c(=O)c2C1c1ccc(Cl)cc1 (stereo not drawn),-3.1,"29.1 µM [rising, single point]",

Structure (SMILES),cell number change [%],AC50 [1],AC50 [2]
O=S(=O)(Nc1ccc(O)c(CN2CCCCC2)c1)c1ccccc1,15,"14.6 µM [rising, single point]",
COc1cccc(Nc2nc(NCC3CCCO3)c3ccccc3n2)c1 (stereo not drawn),-78.5,"18.4 µM [falling, partial curve]","18.4 µM [falling, partial curve]"
Cc1ccc(NS(=O)(=O)c2ccc(OCC(=O)N3CCOCC3)cc2)cc1,0.621,,
CN(Cc1ccccc1)Cc1c(F)cccc1F,-89.5,"29.1 µM [falling, partial curve]","18.4 µM [falling, single point]"
CCCOC(=O)c1ccc(Oc2cn[nH]c2-c2ccc(O)cc2O)cc1,-43.3,"1.16 µM [falling, full curve]","0.82 µM [falling, full curve]"
CCOC(=O)c1nn(-c2ccccc2)c2nnc(Cc3ccccc3)c(=O)n12,31.2,,"2.06 µM [rising, partial curve, poor fit]"
CCN1C(=O)[C@@H]2[C@@H](c3ccc(-c4ccc5c(c4)OCO5)cc3)N3CCCC[C@@]3(C(=O)OC)[C@@H]2C1=O,8.51,"6.51 µM [rising, single point]",
O=C(CC(=O)NC1CCCCC1)N/N=C/c1ccccc1[N+](=O)[O-],-24.6,,
CCOC(=O)c1[nH]c2c(c1-c1ccccc1)C(=O)CC(c1ccccc1)C2 (stereo not drawn),22,,
CC(C)c1ccccc1N=C1SCCN1C1CCS(=O)(=O)C1 (stereo not drawn),8.58,,"7.31 µM [rising, partial curve, poor fit]"
CCCCC(=O)c1ccc(O)cc1,-17.9,"0.13 µM [falling, full curve, poor fit]",
COc1ccc([N+](=O)[O-])cc1NC(=O)C(C)OC(=O)c1cccnc1 (stereo not drawn),45.5,"29.1 µM [rising, single point]","29.1 µM [rising, single point]"
Cc1ccc(-c2nc(-c3cccnc3)no2)cc1,53.8,"0.731 µM [rising, single point]","23.1 µM [rising, partial curve]"
COc1ccc(C(=O)C[n+]2ccc(C)cc2)cc1,85.4,"0.0231 µM [falling, full curve, poor fit]","29.1 µM [rising, single point]"
COc1ccc(C(=O)Nc2nnc(S(=O)(=O)Cc3ccc(F)cc3)s2)cc1,24.6,,
CCN(CC)CCn1c2c(c(SCC(=O)Nc3ccc(C(C)C)cc3)nc1=O)CCCC2,4.91,,
COc1cc2nc(CN3CCN(C(C)=O)CC3)[nH]c(=O)c2cc1OC,11.1,"3.66 µM [rising, full curve]",
CCOC(=O)C1=NOC2COC3(CCN(c4ncccn4)CC3)OCC12 (stereo not drawn),2.38,"0.146 µM [rising, full curve, poor fit]","2.91 µM [rising, single point]"
COc1ccccc1NC(=O)CN(C)S(=O)(=O)c1cccc2cccnc12,-53.4,"5.17 µM [falling, full curve]","29.1 µM [falling, single point]"

# Molecules above that contain a Cl atom, in the order listed:
Structure (SMILES),cell number change [%],AC50 [1],AC50 [2]
COc1ccc(CCN(Cc2cc3cc(C)cc(C)c3nc2Cl)C(=O)C2CC2)cc1,-19.9,"0.231 µM [falling, full curve, poor fit]",
FC(F)(F)COc1ccc(-c2nnc(SCc3c(Cl)cccc3Cl)o2)cn1,-2,,"0.206 µM [rising, partial curve, poor fit]"
CC(C)NC(=O)NC(=O)CSc1ncc(C(F)(F)F)cc1Cl,-31.8,,"9.2 µM [falling, partial curve]"
CC(=O)NCc1c(Cl)cccc1-n1cccc1,42,,
O=C(NNc1cc(C(F)(F)F)ccc1Cl)c1ccc(=O)[nH]c1,-7.98,,
COc1cccc(N2CCN(C(=O)c3ccc(CS(=O)c4ccccc4Cl)o3)CC2)c1 (stereo not drawn),-18.6,"29.1 µM [falling, single point]",
COc1ccc(Cl)cc1S(=O)(=O)N1CCN(C(=O)c2cc(OC)c(OC)c(OC)c2)CC1,-28.6,"32.6 µM [falling, single point]",
COC(=O)C1=C(N)Oc2cc(C)n(CC3CCCO3)c(=O)c2C1c1ccc(Cl)cc1 (stereo not drawn),-3.1,"29.1 µM [rising, single point]",

# Some of the entries so far, with tabs:
Structure (SMILES)	cell number change [%]	AC50 [1]	AC50 [2]
COc1cccc(N2CCN(C(=O)c3ccc(CS(=O)c4ccccc4Cl)o3)CC2)c1 (stereo not drawn)	-18.6	29.1 µM [falling, single point]	
O=C(c1ccc(S(=O)(=O)N2CCC(c3nc4ccccc4s3)CC2)cc1)N1CCOCC1	3.55		
